Our source for the binding values is paper PMC8259210.

Sequences of proteins named here, by UniProt entry; tags and fusion partners are left off.
UniProt P43268: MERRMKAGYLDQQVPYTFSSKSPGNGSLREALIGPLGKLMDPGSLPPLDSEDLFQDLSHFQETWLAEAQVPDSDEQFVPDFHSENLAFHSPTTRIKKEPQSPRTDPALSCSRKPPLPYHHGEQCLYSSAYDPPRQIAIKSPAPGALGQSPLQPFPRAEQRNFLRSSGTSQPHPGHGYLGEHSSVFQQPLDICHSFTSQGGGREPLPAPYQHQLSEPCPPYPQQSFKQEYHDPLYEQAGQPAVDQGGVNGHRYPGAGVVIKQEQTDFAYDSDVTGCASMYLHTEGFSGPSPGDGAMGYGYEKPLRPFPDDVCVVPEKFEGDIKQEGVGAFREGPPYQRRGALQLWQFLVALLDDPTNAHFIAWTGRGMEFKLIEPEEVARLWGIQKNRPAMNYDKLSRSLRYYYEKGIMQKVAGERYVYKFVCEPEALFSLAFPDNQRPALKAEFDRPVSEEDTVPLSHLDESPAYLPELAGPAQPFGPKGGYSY
UniProt P05412: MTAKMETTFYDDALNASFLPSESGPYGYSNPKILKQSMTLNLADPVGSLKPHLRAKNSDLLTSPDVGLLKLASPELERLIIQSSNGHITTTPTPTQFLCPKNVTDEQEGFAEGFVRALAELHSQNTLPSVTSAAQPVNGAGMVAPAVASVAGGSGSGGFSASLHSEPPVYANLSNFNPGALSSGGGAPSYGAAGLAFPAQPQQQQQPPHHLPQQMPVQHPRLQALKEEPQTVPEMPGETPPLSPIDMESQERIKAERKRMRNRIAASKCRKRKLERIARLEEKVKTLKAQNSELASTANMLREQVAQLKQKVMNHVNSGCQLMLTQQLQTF

For the test, the target named is Polyoma enhancer activator 3 (PEA3) (human (endogenous in WI-38)) (UniProt P43268). The experiment in a line: co-IP; WI-38 cells exposed to hypoxia (1% O2) for 30 min, lysed in IP lysis buffer; supernatant immunoprecipitated with antibody against PEA3 or c-Jun with protein A/G beads at 4 °C overnight; immunoblot for PEA3 or c-Jun. For orientation: Immunoblotting shows a protein as a band on a membrane.

Results are given in words; binding and its absence hold for the method and conditions named. Binding seen in cells or lysates may run through a third protein. Some entries that bind do so weakly or less than the wild type.

For the substance c-Jun (from UniProt P05412 1-331), the binding entry is reported as “binds”.
